Patent publication EP4652202A1
These are yes or no findings as the source states them, for the method shown. Some binding calls cover weakened binding; strength is not graded here.

Amino acid sequences for entries named in this document (tags omitted). Residues count along the entry.
UniProt P78324, residues 31-369: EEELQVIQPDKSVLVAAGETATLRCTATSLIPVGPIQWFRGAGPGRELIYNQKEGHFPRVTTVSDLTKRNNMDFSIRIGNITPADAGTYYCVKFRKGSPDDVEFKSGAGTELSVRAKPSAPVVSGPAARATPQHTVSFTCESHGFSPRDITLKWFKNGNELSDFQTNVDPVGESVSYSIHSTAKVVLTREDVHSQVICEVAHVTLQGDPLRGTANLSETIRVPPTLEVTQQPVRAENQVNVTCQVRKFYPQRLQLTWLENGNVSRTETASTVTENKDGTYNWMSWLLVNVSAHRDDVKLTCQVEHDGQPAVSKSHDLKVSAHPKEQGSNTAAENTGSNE

Molecular target: Biotinylated human SIRPα extracellular domain recombinant protein (human) (UniProt P78324)
Assay: flow cytometry of yeast-displayed scFv with 1nM bio-SIRPα in 1M guanidine, compared with the wildtype 2534m1V3 control

B1: Clone 201 (anti-SIRPα scFv mutant of 2534m1V3) (scFv)
scFv: EIVLTQSPATLSLSPGERATLSCRASQSVSSSYLYWYQQKPGQAPKLLIYSASNRASGIPARFSGSGSGTDYTLTISSLEPEDFAVYYCHQWSSYPYTFGQGTKLEIKGGGGSGGGGSGGGGSGGGGSEVQLVQSGAEVKKPGATVKISCKVSGFNIKDYYMHWVRQAPGKGLEWIGRVDPEDAETKYAEKFQGRVTITADTSTDTAYMELSSLRSEDTAVYYCDRGLVYWGQGTLVTVSS
With B1 the binding was “binds”.
